In one experiment the target is T1, Flag-OTUD5 (UniProt Q96G74).
T1 sequence: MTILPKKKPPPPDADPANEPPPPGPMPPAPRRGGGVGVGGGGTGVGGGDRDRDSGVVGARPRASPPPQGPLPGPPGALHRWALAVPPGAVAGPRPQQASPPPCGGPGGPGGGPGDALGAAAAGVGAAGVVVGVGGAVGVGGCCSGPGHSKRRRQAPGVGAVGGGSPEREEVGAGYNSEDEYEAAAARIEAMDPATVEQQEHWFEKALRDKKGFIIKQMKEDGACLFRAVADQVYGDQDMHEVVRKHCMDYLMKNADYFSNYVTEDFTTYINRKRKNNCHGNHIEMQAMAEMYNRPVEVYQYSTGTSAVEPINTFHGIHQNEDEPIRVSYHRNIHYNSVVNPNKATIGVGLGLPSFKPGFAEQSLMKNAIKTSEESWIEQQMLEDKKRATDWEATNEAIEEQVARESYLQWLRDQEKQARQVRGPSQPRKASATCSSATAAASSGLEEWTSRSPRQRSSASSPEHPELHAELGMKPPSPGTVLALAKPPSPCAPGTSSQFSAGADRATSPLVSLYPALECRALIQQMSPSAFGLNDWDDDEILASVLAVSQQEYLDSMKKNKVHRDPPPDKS
The experiment in a line: co-IP; HEK293T cells with the flag-tagged OTUD5 plasmid; precipitated with a FLAG-tag antibody, SLC38A1 detected by Western blotting. In general terms: Immunoblotting shows a protein as a band on a membrane.

The target in experiment [1] is T2, OTU deubiquitinase 5 (OTUD5), endogenous (human (endogenous in HCCLM3)) (UniProt Q96G74).
T2 sequence: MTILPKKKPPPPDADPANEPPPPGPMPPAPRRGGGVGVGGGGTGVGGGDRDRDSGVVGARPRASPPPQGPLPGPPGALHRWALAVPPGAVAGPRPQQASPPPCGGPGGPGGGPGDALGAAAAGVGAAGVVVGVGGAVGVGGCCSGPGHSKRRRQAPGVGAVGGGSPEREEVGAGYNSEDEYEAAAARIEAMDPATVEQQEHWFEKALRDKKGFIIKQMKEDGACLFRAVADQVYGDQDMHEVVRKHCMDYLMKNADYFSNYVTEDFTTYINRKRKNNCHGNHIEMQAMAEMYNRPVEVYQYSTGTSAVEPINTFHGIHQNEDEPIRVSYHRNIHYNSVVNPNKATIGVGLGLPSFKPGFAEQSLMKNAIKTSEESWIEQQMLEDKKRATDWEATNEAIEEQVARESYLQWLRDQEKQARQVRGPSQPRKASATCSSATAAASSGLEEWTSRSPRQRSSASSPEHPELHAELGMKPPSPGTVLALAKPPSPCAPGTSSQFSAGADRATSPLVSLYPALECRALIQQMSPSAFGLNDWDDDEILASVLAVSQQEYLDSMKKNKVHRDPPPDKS
The experiment is described as follows: co-IP; endogenous proteins in HCCLM3 lysate (IP lysis buffer); antibody on Dynabeads Protein G, overnight at 4 °C; anti-OTUD5 IP with anti-SLC38A1 blot and anti-SLC38A1 IP with anti-OTUD5 blot described in the methods.

No constants are given. Whether binding was seen depends on the method and setting. Binding seen in cells or lysates may run through a third protein. Some entries that bind do so weakly or less than the wild type. For some assays here: Sequences can lack the tags named with a protein.

B1: solute carrier family 38 member 1 (SLC38A1) (protein, UniProt Q9H2H9 1-487)
chain: MMHFKSGLELTELQNMTVPEDDNISNDSNDFTEVENGQINSKFISDRESRRSLTNSHLEKKKCDEYIPGTTSLGMSVFNLSNAIMGSGILGLAFALANTGILLFLVLLTSVTLLSIYSINLLLICSKETGCMVYEKLGEQVFGTTGKFVIFGATSLQNTGAMLSYLFIVKNELPSAIKFLMGKEETFSAWYVDGRVLVVIVTFGIILPLCLLKNLGYLGYTSGFSLSCMVFFLIVVIYKKFQIPCIVPELNSTISANSTNADTCTPKYVTFNSKTVYALPTIAFAFVCHPSVLPIYSELKDRSQKKMQMVSNISFFAMFVMYFLTAIFGYLTFYDNVQSDLLHKYQSKDDILILTVRLAVIVAVILTVPVLFFTVRSSLFELAKKTKFNLCRHTVVTCILLVVINLLVIFIPSMKDIFGVVGVTSANMLIFILPSSLYLKITDQDGDKGTQRIWAALFLGLGVLFSLVSIPLVIYDWACSSSSDEGH
In the case of B1, the binding result (with Flag-OTUD5; in experiment [1]) was “binds” throughout.

For the origin of these results see article PMC11041014.
